Where a name gives a salt, the structure may show the parent alone. ± gives the standard deviation of the averaged measurements. This is one part of the list. Values are raw readings; no control value is given beside them.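 Ribosome-assembly readouts in HeLa cells were imaged via ENP1 staining, with or without export block, or inducible tagged ribosomal protein reporters. Machine learning classified per-cell signal location versus solvent (DMSO) controls. Hits surpassed the DMSO false-positive mean by five standard deviations and were visually confirmed; three biological replicates.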

The assay deals with HeLa K (ENP1 immunofluorescence, +LMB). The assay is described as follows: fraction of cells with nucleolar or nucleolar/nucleoplasmic ENP1 signal (MainHitrate); higher = more cells with nucleolar/nuclear readout signal (for ENP1 -LMB: less RNAPI inhibition; for +LMB ENP1 and RP reporters: stronger nuclear/nucleolar retention, i.e. ribosome biogenesis defect). Particulars: concentration: 1 µM; treatment time: 6 h; ENP1 +LMB; leptomycin B: 20 nM, last 1.5 h.
Consider `Nc1ccn([C@H]2CC[C@@H](CO)O2)c(=O)n1` [Zalcitabine], for which the fraction turned out to be 0.0969 ± 0.13.
For the compound `Cc1[nH]c(=O)c(C#N)cc1-c1ccncc1` [Milrinone (Primacor)], the fraction is 0.0796 ± 0.1.
Take `C[C@]12CCC3=C4CCC(=O)C=C4CC[C@H]3[C@@H]1CC[C@@]2(O)CC#N` [Dienogest]: the fraction is 0.144 ± 0.2.
The same measure for `CN(C)CCCOc1nn(Cc2ccccc2)c2ccccc12` [Benzydamine Hydrochloride]: 0.0631 ± 0.083.
For `CS(=O)(=O)OCCCCOS(C)(=O)=O` [Busulfan (Myleran, Busulfex)], the fraction worked out at 0.0686 ± 0.08.
The same measure for `CS(=O)(=O)c1ccc([C@@H](O)[C@@H](CO)NC(=O)C(Cl)Cl)cc1` [Thiamphenicol (Thiophenicol)]: 0.0579 ± 0.06; for `CCC[C@@H]1C[C@@H](C(=O)N[C@@H]([C@H]2O[C@H](SC)[C@H](OP(=O)(O)O)[C@@H](O)[C@H]2O)[C@H](C)Cl)N(C)C1` [Clindamycin phosphate]: 0.184 ± 0.28.
The same measure for `NC(=O)c1cccnc1` [Nicotinamide (Niacinamide)]: 0.0845 ± 0.11; for `NC[C@H]1O[C@H](O[C@H]2[C@H](O)[C@@H](O[C@H]3O[C@H](CO)[C@@H](O)[C@H](N)[C@H]3O)[C@H](N)C[C@@H]2N)[C@H](N)C[C@@H]1O` [Tobramycin]: 0.132 ± 0.2; for `COc1ccccc1OCC(O)CN1CCN(CC(=O)Nc2c(C)cccc2C)CC1` (stereo not drawn) [Ranolazine (Ranexa)]: 0.0599 ± 0.086.
The same measure for `CC(COc1ccccc1)N(CCCl)Cc1ccccc1` (stereo not drawn) [Phenoxybenzamine HCl]: 0.0959 ± 0.098.
`CN1[C@@H]2CC[C@H]1C[C@@H](OC(c1ccccc1)c1ccccc1)C2` [Benztropine mesylate]: the fraction was 0.0927 ± 0.14.
Compound `C#C[C@]1(OC(C)=O)CC[C@H]2[C@@H]3CCC4=C[C@@H](OC(C)=O)CC[C@@H]4[C@H]3CC[C@@]21C` [Ethynodiol diacetate] gave a fraction of 0.147 ± 0.21.

These data come from the supplement of paper PMC12542422.
